Laboratory results: patent US20070078175A1, “Administration of novel phenylfurylmethylthiazolidine-2,4-dione and phenylthienylmethylthiazolidine-2,4-dione compounds for stimulating or inducing the growth of keratinous fibers and/or slowing loss thereof” (L'OREAL, priority 2005, published 2007)

Test: Comparative hair colouring test on bleached locks of hair
Details: 100 mg product in water/ethanol/aqueous ammonia (salt form), 40° C., 1 hour

SMILES: O=C1N=C(O)C(Cc2ccc(-c3ccc(C(=O)O)cc3)o2)S1 (centres unmarked)
- coloring of locks of hair: in contrast

SMILES: O=C1N=C(O)/C(=C/c2ccc(-c3ccc(C(=O)O)cc3)o2)S1 [4-{5-[(2,4-disulfo-1,3-thiazolidin-5-ylidene)methyl]-2-furyl}benzoic acid]
- coloring of locks of hair: colors the locks of hair
